{"sequences": {"note": "The chains behind the UniProt entries cited, without tags or fusion partners. Where a name states a change or a piece, a line headed by the entry shows the natural chain unless it says otherwise.", "UniProt Q9NS56": "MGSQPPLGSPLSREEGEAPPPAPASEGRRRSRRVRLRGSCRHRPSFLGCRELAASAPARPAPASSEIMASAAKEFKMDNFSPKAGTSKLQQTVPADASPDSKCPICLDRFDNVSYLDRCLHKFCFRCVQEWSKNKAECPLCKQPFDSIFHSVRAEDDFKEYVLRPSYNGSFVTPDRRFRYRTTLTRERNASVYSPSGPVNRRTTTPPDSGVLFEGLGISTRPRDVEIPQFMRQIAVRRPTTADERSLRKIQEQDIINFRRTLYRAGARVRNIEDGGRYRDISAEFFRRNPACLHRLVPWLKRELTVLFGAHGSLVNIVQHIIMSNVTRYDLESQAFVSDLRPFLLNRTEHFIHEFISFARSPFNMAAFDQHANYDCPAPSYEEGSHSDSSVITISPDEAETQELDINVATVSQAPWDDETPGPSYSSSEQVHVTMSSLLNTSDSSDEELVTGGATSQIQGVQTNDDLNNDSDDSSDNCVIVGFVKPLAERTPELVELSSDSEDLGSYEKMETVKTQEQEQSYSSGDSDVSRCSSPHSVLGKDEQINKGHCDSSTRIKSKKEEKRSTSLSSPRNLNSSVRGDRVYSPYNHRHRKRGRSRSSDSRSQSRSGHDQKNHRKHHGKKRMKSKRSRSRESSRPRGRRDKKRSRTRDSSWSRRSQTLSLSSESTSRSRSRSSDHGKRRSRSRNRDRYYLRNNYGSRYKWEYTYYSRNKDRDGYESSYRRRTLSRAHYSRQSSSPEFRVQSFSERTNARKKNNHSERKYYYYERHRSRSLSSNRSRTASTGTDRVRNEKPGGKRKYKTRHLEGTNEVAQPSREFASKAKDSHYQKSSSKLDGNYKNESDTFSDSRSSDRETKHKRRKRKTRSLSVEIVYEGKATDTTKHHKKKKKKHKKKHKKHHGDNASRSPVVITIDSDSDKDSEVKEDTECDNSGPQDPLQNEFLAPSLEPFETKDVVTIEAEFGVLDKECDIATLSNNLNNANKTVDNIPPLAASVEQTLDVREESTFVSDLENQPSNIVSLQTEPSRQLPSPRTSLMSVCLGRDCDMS", "UniProt Q9NWL6": "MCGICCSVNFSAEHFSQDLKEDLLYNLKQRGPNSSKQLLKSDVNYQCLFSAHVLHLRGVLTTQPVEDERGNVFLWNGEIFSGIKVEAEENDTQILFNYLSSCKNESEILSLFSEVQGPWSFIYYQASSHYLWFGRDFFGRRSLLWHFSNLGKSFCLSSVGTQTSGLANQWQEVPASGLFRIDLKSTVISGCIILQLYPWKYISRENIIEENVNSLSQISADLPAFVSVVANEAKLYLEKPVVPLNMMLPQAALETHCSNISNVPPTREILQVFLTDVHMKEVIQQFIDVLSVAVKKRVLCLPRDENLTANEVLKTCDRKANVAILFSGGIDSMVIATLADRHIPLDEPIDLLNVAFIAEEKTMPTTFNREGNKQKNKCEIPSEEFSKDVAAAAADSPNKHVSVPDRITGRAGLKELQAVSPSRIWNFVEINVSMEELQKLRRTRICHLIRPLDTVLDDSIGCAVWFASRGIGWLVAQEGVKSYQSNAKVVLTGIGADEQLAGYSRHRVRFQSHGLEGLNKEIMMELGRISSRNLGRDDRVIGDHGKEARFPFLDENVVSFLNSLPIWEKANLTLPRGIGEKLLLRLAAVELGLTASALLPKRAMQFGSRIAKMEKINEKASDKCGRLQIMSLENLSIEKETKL", "UniProt Q9NSG2": "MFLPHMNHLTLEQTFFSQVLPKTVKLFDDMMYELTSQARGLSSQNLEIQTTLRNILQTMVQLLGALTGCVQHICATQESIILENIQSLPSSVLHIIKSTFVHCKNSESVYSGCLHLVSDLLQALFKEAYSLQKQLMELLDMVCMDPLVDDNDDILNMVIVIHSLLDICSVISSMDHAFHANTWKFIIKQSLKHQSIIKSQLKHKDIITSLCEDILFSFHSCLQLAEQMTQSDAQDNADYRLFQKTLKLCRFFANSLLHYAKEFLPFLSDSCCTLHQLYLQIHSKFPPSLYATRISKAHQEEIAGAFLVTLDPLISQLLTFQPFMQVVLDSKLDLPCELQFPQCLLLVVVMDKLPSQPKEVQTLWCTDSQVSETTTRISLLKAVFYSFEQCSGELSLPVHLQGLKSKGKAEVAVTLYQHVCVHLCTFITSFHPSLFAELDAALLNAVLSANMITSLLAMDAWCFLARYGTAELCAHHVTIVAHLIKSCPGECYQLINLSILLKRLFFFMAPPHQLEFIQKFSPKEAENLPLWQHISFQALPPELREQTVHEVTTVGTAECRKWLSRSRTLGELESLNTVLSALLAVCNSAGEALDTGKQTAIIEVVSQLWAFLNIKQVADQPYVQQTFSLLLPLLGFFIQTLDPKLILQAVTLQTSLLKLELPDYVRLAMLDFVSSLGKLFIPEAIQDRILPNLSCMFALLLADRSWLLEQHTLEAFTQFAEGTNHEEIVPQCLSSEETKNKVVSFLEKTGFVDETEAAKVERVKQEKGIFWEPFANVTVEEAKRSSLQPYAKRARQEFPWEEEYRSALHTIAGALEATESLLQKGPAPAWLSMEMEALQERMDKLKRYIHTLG", "UniProt Q9NT62, whole entry": "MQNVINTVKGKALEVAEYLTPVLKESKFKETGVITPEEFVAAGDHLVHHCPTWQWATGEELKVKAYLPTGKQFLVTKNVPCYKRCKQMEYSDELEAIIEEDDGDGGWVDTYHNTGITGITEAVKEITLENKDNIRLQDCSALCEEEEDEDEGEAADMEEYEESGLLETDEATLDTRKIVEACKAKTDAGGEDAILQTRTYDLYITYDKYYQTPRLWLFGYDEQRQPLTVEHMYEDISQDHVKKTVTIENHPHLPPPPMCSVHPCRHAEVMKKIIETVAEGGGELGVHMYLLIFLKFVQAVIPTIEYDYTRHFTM", "UniProt Q9NVR7": "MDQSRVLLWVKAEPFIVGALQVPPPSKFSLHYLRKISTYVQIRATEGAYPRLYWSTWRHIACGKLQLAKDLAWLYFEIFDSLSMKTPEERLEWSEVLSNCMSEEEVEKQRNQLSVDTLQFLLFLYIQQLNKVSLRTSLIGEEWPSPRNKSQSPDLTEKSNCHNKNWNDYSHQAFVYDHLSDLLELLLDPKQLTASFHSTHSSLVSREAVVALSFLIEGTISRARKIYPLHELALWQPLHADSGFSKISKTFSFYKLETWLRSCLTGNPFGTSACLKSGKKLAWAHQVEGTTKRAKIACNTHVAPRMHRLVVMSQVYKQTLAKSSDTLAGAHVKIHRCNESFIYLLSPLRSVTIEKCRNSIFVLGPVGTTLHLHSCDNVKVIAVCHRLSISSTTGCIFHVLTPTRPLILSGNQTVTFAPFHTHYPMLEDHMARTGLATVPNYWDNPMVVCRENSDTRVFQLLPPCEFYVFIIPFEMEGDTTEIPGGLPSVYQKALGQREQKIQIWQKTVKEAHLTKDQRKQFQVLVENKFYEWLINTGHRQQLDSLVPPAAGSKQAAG", "UniProt Q9NQ75": "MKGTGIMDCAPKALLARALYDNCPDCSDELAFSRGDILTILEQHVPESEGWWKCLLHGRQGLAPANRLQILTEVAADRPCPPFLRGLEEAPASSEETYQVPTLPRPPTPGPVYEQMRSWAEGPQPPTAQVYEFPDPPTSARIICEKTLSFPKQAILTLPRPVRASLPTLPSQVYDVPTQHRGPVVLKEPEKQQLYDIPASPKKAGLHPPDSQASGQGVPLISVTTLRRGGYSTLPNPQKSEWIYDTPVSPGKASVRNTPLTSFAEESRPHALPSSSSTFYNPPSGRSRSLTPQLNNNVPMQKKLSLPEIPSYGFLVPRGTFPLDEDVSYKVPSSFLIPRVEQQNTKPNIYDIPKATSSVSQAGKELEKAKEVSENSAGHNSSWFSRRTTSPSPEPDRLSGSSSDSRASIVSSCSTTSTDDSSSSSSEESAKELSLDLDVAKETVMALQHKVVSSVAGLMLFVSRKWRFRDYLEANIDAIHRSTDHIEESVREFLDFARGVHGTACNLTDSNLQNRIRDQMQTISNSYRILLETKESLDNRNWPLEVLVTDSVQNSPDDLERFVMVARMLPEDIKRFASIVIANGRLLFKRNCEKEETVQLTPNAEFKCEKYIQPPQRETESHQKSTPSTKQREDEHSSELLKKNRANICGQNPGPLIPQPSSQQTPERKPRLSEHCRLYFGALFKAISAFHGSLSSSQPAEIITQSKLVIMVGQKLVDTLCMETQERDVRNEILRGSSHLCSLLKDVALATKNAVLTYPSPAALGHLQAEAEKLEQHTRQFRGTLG", "UniProt Q9NVP1": "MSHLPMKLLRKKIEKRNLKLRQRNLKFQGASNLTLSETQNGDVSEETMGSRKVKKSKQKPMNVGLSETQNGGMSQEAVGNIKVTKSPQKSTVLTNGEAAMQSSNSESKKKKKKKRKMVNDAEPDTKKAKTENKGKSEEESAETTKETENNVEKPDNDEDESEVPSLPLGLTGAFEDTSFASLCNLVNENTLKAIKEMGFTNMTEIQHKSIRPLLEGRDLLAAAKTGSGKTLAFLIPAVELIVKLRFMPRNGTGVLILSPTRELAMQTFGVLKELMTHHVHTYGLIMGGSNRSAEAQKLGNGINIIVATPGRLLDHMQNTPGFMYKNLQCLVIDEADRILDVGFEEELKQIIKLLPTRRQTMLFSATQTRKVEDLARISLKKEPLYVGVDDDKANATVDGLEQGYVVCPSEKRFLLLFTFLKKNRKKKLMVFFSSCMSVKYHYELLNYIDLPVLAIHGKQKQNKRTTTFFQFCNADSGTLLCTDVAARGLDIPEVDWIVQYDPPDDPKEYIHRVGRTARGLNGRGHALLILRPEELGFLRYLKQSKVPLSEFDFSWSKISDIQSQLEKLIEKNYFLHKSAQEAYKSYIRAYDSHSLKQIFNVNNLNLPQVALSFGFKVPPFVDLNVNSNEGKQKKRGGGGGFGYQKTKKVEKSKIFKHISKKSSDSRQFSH", "UniProt Q9NSY1, whole entry, looked up": "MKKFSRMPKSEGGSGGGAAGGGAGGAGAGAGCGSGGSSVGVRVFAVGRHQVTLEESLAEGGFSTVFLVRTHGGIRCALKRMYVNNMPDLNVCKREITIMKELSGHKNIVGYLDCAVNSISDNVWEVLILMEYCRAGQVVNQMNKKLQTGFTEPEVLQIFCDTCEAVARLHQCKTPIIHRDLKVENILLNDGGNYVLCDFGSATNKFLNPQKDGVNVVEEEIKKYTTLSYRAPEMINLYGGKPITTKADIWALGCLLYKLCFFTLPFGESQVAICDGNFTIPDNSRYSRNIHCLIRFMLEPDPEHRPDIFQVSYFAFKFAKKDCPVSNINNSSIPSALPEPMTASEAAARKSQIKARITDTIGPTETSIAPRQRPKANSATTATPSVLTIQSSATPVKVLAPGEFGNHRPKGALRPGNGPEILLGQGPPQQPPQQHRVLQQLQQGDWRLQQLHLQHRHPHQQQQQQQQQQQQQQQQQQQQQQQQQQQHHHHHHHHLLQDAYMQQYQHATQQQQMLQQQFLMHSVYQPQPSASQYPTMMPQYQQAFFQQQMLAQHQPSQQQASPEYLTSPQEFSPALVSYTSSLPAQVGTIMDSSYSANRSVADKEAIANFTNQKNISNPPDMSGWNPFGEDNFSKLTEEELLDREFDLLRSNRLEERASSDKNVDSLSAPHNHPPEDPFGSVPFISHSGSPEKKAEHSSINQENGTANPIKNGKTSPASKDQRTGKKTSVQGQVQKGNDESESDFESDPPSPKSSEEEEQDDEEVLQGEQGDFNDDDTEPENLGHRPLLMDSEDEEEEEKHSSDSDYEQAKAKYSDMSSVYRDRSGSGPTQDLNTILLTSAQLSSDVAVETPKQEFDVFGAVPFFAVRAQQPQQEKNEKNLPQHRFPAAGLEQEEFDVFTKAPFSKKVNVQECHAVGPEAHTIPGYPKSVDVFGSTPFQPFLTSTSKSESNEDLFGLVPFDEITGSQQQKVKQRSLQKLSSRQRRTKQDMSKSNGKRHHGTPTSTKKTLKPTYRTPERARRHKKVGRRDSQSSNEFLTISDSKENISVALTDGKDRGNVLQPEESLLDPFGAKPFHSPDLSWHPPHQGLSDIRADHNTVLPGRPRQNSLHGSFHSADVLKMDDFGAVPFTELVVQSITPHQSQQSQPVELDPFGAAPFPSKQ"}, "source": "the supplement of paper PMC12819154", "about": "“High-throughput peptide-centric local stability assay extends protein–ligand identification to membrane proteins, tissues and bacteria” (Nature Structural & Molecular Biology, 2025)", "note": "Some of the results follow. Most values lie at the level of the controls, where differences are scatter."}
{"compound": "Cc1nc(Nc2ncc(C(=O)Nc3c(C)cccc3Cl)s2)cc(N2CCN(CCO)CC2)n1 [dasatinib]", "assay": "log2 fold change of tryptic peptide abundance, ligand vs vehicle (limited proteolysis) (log2 ratio); higher = more trypsin-susceptible (destabilized)", "settings": "ligand concentration: 5 uM; sample: K562 cleared lysate"}
{"target": "UniProt Q9NS56 (peptide sequence: HLEGTNEVAQPSR, peptide start residue: 802)", "log2 fold change": 0.235}
{"target": "UniProt Q9NWL6 (peptide sequence: SDVNYQCLFSAHVLHLR, peptide start residue: 41)", "log2 fold change": 0.314}
{"target": "C1orf112 (peptide sequence: GIFWEPFANVTVEEAKR, peptide start residue: 768) (UniProt Q9NSG2)", "log2 fold change": -0.117}
{"target": "ATG3 (peptide sequence: QPLTVEHMYEDISQDHVK, peptide start residue: 225) (UniProt Q9NT62)", "log2 fold change": -0.386}
{"target": "TBCCD1 (peptide sequence: SQSPDLTEK, peptide start residue: 150) (UniProt Q9NVR7)", "log2 fold change": -0.374}
{"target": "CASS4 (peptide sequence: QREDEHSSELLK, peptide start residue: 631) (UniProt Q9NQ75)", "log2 fold change": -0.588}
{"target": "DDX18 (peptide sequence: ISDIQSQLEK, peptide start residue: 558) (UniProt Q9NVP1)", "log2 fold change": 0.0948}
{"target": "UniProt Q9NSY1 (peptide sequence: FLNPQKDGVNVVEEEIK, peptide start residue: 206)", "log2 fold change": -0.378}
